Experimental data: article doi:10.1101/720508
These are yes or no findings as the source states them, for the method shown. In cells and extracts the contact can be indirect. These calls come from enrichment with a bait or labelling near it, and not all partners need be listed.

By UniProt entry, the sequences of proteins in these tests, tags left out. Where a name states a change or a piece, a line headed by the entry shows the natural chain unless it says otherwise. Chains listed by the source or under a name are the forms on record and can include a tag or linker. Residues count along the entry.
UniProt P14231: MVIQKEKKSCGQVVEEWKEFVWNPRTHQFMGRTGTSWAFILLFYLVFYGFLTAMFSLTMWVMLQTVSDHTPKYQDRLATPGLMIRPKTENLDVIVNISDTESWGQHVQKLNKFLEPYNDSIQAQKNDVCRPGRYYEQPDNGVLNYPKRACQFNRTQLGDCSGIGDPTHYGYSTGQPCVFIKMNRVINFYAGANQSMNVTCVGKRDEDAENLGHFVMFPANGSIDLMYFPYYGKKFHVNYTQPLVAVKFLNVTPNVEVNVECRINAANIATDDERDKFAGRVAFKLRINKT
UniProt O55143: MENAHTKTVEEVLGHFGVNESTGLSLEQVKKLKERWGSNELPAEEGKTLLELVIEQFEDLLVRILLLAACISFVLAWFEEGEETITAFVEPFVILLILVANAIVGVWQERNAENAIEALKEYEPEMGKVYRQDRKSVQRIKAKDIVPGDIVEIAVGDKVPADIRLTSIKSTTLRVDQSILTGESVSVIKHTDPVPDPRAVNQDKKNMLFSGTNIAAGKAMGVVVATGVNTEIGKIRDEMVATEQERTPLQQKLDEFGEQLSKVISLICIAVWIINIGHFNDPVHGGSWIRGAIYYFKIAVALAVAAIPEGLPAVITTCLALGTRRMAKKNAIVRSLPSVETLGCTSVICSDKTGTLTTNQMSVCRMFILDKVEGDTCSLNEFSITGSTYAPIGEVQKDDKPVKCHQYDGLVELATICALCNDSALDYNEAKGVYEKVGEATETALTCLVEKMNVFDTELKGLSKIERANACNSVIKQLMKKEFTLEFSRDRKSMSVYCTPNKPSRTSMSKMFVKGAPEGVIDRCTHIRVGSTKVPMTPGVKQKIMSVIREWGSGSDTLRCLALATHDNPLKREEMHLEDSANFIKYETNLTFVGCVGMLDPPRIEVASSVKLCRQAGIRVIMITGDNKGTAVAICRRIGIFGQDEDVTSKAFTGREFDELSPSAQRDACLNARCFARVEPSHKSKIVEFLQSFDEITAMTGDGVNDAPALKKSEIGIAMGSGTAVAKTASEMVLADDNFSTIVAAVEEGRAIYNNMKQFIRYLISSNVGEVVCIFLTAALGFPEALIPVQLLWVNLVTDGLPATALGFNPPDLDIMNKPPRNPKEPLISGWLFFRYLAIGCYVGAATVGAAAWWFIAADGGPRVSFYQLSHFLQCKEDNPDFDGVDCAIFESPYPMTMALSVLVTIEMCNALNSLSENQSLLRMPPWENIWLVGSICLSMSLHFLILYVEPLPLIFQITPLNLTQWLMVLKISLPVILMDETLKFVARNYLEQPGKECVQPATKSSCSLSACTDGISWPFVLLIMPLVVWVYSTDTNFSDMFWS
AT2B3 (calcium ATPase) (Q8C048, form named): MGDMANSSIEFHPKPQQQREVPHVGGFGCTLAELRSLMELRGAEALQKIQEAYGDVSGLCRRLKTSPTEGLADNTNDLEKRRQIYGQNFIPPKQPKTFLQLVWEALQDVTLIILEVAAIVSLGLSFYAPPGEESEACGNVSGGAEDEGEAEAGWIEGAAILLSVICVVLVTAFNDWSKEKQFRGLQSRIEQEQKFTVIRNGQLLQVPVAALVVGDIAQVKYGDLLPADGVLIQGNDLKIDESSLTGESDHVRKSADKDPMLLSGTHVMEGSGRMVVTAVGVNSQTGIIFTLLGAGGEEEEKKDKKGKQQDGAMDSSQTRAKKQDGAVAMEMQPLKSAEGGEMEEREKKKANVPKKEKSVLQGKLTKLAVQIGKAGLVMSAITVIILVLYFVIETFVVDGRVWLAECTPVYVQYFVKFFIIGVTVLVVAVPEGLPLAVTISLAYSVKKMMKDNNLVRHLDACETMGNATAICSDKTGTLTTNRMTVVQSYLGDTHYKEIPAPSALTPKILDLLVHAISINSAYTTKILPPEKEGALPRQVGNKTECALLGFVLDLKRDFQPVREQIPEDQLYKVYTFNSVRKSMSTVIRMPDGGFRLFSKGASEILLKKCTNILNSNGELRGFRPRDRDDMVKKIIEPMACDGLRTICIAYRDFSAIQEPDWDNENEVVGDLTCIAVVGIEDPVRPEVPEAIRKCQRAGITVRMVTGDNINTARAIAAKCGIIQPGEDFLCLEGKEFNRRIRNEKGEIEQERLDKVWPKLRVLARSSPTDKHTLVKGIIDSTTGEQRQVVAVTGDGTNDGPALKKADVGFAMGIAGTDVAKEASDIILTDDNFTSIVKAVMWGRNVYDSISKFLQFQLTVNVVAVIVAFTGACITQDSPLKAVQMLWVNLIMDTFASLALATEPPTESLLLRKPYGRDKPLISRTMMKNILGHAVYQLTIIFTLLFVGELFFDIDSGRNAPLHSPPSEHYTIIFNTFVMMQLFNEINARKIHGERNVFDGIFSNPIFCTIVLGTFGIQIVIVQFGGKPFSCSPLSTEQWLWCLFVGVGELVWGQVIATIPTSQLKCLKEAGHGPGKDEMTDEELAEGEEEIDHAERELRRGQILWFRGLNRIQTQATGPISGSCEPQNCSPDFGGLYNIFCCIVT
UniProt P56480, residues 47-529: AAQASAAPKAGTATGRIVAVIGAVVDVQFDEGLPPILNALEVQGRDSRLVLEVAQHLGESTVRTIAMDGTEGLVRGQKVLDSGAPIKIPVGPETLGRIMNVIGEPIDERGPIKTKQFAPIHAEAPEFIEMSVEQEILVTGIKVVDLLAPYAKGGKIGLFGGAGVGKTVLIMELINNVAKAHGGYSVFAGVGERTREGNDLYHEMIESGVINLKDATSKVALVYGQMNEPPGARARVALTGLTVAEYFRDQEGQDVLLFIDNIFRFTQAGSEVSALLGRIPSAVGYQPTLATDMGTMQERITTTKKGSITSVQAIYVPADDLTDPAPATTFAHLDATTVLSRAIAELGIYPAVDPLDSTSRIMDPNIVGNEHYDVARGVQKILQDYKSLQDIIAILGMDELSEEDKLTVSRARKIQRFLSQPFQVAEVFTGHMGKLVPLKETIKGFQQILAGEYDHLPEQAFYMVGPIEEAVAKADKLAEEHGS
UniProt Q9JIS5: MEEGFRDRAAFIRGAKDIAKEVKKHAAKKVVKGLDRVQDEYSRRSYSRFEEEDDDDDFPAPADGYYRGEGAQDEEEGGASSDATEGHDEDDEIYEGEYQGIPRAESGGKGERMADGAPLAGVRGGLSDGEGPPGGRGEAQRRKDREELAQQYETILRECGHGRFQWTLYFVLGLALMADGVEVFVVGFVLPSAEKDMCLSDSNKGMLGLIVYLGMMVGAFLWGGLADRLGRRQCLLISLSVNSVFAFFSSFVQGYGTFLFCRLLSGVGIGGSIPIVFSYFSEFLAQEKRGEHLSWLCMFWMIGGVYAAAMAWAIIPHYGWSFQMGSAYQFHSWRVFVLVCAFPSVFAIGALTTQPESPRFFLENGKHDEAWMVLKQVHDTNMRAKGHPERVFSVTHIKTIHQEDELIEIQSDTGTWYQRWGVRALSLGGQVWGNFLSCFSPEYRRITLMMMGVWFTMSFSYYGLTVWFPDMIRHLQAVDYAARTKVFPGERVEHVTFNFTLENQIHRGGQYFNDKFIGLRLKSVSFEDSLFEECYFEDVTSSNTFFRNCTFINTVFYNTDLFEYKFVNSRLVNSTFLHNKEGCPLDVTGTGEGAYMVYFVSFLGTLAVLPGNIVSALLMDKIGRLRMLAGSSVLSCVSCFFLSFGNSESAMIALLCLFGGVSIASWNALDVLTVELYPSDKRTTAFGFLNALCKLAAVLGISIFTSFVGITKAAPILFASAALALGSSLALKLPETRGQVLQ

Target: T1, GPR151 (mouse (endogenous in IPN)) (UniProt Q7TSN6)
T1 sequence: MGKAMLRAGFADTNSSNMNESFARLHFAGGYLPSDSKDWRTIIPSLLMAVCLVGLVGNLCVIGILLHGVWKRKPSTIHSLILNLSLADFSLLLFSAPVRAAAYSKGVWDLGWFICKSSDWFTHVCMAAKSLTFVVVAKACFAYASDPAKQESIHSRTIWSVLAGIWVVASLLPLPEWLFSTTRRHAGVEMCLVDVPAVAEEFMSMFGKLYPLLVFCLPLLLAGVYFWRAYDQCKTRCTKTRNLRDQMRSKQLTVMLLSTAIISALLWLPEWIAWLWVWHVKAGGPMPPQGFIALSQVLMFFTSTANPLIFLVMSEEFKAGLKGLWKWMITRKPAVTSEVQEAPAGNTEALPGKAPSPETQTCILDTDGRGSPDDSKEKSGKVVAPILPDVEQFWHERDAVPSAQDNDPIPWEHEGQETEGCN
Assay: affinity purification with mass spectrometry

Substance | binding
AT1B2 (sodium/potassium ATPase structural β-subunit) (from UniProt P14231 1-290) | binds
AT2A2 (calcium ATPase) (from UniProt O55143 1-1044) | binds
AT2B3 (calcium ATPase) (from UniProt Q8C048 1-1144) | binds
AT5B (H+ transporting ATPase) (from UniProt P56480 47-529) | binds
Synaptic vesicle glycoprotein 2A (SV2A) (from UniProt Q9JIS5 1-742) | binds
